{"source": "patent US20250263370A1", "about": "(Tay Therapeutics Limited, priority 2022, published 2025)", "system": "collagen-induced arthritis", "test": "Collagen-induced arthritis (CIA) model in rats: body weight, paw volume, clinical scores, clinical observations; as to Detailed Clinical Scores, left forelimb: key of the grades not given here; as to Detailed Clinical Scores, left hind limb: key of the grades not given here; as to Detailed Clinical Scores, right forelimb: key of the grades not given here; as to Detailed Clinical Scores, right hind limb: key of the grades not given here; as to Detailed Clinical Scores, score: key of the grades not given here; as to Overall clinical score: key of the grades not given here", "conditions": "for Animal paw volume percent change: individual animals; for Detailed Clinical Scores, left forelimb / Detailed Clinical Scores, left hind limb / Detailed Clinical Scores, right forelimb / Detailed Clinical Scores, right hind limb / Detailed Clinical Scores, score / Overall clinical score: CIA rats; for Detailed Clinical Scores, left forelimb / Detailed Clinical Scores, left hind limb / Detailed Clinical Scores, right forelimb / Detailed Clinical Scores, right hind limb / Detailed Clinical Scores, score: individual animals ID 1-8; for Overall clinical score: individual animals #1-8", "note": "“And” between values parts separate entries of the source, which are not always exact repeats. Equal values may be shown once. This continues a long series; more values of the same kind are listed elsewhere.", "data": [{"compound": "CNC(=O)c1[nH]c(C(=O)NC2CCC2)cc1O[C@@H](C)c1ccccc1", "note": "(stereo in doubt) [Example 101, N^5-cyclobutyl-N^2-methyl-3-(1-phenylethoxy)-1H-pyrrole-2,5-dicarboxamide]", "values": [{"measurement": "Animal paw volume percent change", "setting": "Day 0, L paw, 3 mg/kg", "result": 0.00, "unit": "%"}, {"measurement": "Animal paw volume percent change", "setting": "Day 0, L paw, 10 mg/kg", "result": 0.00, "unit": "%"}, {"measurement": "Animal paw volume percent change", "setting": "Day 0, L paw, 30 mg/kg", "result": 0.00, "unit": "%"}, {"measurement": "Animal paw volume percent change", "setting": "Day 0, R paw, 3 mg/kg", "result": 0.00, "unit": "%"}, {"measurement": "Animal paw volume percent change", "setting": "Day 0, R paw, 10 mg/kg", "result": 0.00, "unit": "%"}, {"measurement": "Animal paw volume percent change", "setting": "Day 0, R paw, 30 mg/kg", "result": 0.00, "unit": "%"}, {"measurement": "Detailed Clinical Scores, left forelimb", "setting": "Day 0, 3 mg/kg", "result": 0}, {"measurement": "Detailed Clinical Scores, left hind limb", "setting": "Day 0, 3 mg/kg", "result": 0}, {"measurement": "Detailed Clinical Scores, right forelimb", "setting": "Day 0, 3 mg/kg", "result": 0}, {"measurement": "Detailed Clinical Scores, right hind limb", "setting": "Day 0, 3 mg/kg", "result": 0}, {"measurement": "Detailed Clinical Scores, score", "setting": "Day 0, 3 mg/kg", "result": 0}, {"measurement": "Detailed Clinical Scores, left forelimb", "setting": "Day 0, 10 mg/kg", "result": 0}, {"measurement": "Detailed Clinical Scores, left hind limb", "setting": "Day 0, 10 mg/kg", "result": 0}, {"measurement": "Detailed Clinical Scores, right forelimb", "setting": "Day 0, 10 mg/kg", "result": 0}, {"measurement": "Detailed Clinical Scores, right hind limb", "setting": "Day 0, 10 mg/kg", "result": 0}, {"measurement": "Detailed Clinical Scores, score", "setting": "Day 0, 10 mg/kg", "result": 0}, {"measurement": "Detailed Clinical Scores, left forelimb", "setting": "Day 0, 30 mg/kg", "result": 0}, {"measurement": "Detailed Clinical Scores, left hind limb", "setting": "Day 0, 30 mg/kg", "result": 0}, {"measurement": "Detailed Clinical Scores, right forelimb", "setting": "Day 0, 30 mg/kg", "result": 0}, {"measurement": "Detailed Clinical Scores, right hind limb", "setting": "Day 0, 30 mg/kg", "result": 0}, {"measurement": "Detailed Clinical Scores, score", "setting": "Day 0, 30 mg/kg", "result": 0}, {"measurement": "Overall clinical score", "setting": "Day 0, 30 mg/kg", "result": 0}, {"measurement": "Animal paw volume percent change", "setting": "Day 6, L paw, 3 mg/kg", "result": "0.00% (3×) and 0.77% and 0.38% and 6.08% and 0.74% and 0.75%"}, {"measurement": "Animal paw volume percent change", "setting": "Day 6, L paw, 10 mg/kg", "result": "1.44% and −2.78% and 1.56% and 3.50% and 2.30% and 3.46% and 0.00% and −0.40%"}, {"measurement": "Animal paw volume percent change", "setting": "Day 6, L paw, 30 mg/kg", "result": "1.89% and 0.76% (2×) and 0.00% and 0.38% (2×) and 1.54% and 0.37%"}, {"measurement": "Animal paw volume percent change", "setting": "Day 6, R paw, 3 mg/kg", "result": "0.00% (2×) and 0.76% and 0.75% and 5.68% and 1.12% and 0.77% and 0.74%"}, {"measurement": "Animal paw volume percent change", "setting": "Day 6, R paw, 10 mg/kg", "result": "0.00% (2×) and −1.59% and 1.54% and 2.32% and 3.09% and 2.30% and −0.73%"}, {"measurement": "Animal paw volume percent change", "setting": "Day 6, R paw, 30 mg/kg", "result": "1.50% and 0.77% and 0.38% and 0.64% and 1.15% and 0.76% (2×) and 0.00%"}, {"measurement": "Detailed Clinical Scores, left forelimb", "setting": "Day 6, 3 mg/kg", "result": 0}, {"measurement": "Detailed Clinical Scores, left hind limb", "setting": "Day 6, 3 mg/kg", "result": 0}, {"measurement": "Detailed Clinical Scores, right forelimb", "setting": "Day 6, 3 mg/kg", "result": 0}, {"measurement": "Detailed Clinical Scores, right hind limb", "setting": "Day 6, 3 mg/kg", "result": 0}, {"measurement": "Detailed Clinical Scores, score", "setting": "Day 6, 3 mg/kg", "result": 0}, {"measurement": "Detailed Clinical Scores, left forelimb", "setting": "Day 6, 10 mg/kg", "result": 0}, {"measurement": "Detailed Clinical Scores, left hind limb", "setting": "Day 6, 10 mg/kg", "result": 0}, {"measurement": "Detailed Clinical Scores, right forelimb", "setting": "Day 6, 10 mg/kg", "result": 0}, {"measurement": "Detailed Clinical Scores, right hind limb", "setting": "Day 6, 10 mg/kg", "result": 0}, {"measurement": "Detailed Clinical Scores, score", "setting": "Day 6, 10 mg/kg", "result": 0}, {"measurement": "Detailed Clinical Scores, left forelimb", "setting": "Day 6, 30 mg/kg", "result": 0}, {"measurement": "Detailed Clinical Scores, left hind limb", "setting": "Day 6, 30 mg/kg", "result": 0}, {"measurement": "Detailed Clinical Scores, right forelimb", "setting": "Day 6, 30 mg/kg", "result": 0}, {"measurement": "Detailed Clinical Scores, right hind limb", "setting": "Day 6, 30 mg/kg", "result": 0}, {"measurement": "Detailed Clinical Scores, score", "setting": "Day 6, 30 mg/kg", "result": 0}, {"measurement": "Overall clinical score", "setting": "Day 6, 30 mg/kg", "result": 0}, {"measurement": "Animal paw volume percent change", "setting": "Day 12, L paw, 3 mg/kg", "result": "1.48% and 0.77% and 5.32% and 7.60% and 1.49% and 24.52% and 1.47% and 3.75%"}, {"measurement": "Animal paw volume percent change", "setting": "Day 12, L paw, 10 mg/kg", "result": "9.39% and −0.40% and 10.89% and 26.46% and 2.30% and 10.38% and 1.47% and 0.40%"}, {"measurement": "Animal paw volume percent change", "setting": "Day 12, L paw, 30 mg/kg", "result": "2.26% and 1.52% and −1.13% and 0.76% and 3.04% and 0.38% and 3.09% and 0.75%"}, {"measurement": "Animal paw volume percent change", "setting": "Day 12, R paw, 3 mg/kg", "result": "1.45% and 8.37% and 3.00% and 10.23% and 2.61% and 9.96% and 0.74% and 3.75%"}, {"measurement": "Animal paw volume percent change", "setting": "Day 12, R paw, 10 mg/kg", "result": "2.49% and 1.20% and 44.79% and 2.32% and 3.86% and 5.36% and 1.47% and 2.39%"}, {"measurement": "Animal paw volume percent change", "setting": "Day 12, R paw, 30 mg/kg", "result": "12.36% and 3.83% and 1.53% and 0.64% and 1.92% and 0.76% and 2.66% and −0.75%"}, {"measurement": "Overall clinical score", "setting": "Day 12, 30 mg/kg", "result": "1 and 0 (7×)"}, {"measurement": "Animal paw volume percent change", "setting": "Day 13, L paw, 3 mg/kg", "result": "19.19% and 16.86% and 14.07% and 16.73% and 2.23% and 42.15% and 4.40% and 5.24%"}, {"measurement": "Animal paw volume percent change", "setting": "Day 13, L paw, 10 mg/kg", "result": "23.10% and 4.37% and 40.47% and 42.02% and 3.07% and 11.15% and 5.13% and 3.57%"}, {"measurement": "Animal paw volume percent change", "setting": "Day 13, L paw, 30 mg/kg", "result": "5.28% and 3.04% and 0.00% and 1.52% and 4.56% and 2.29% and 4.63% and 0.75%"}, {"measurement": "Animal paw volume percent change", "setting": "Day 13, R paw, 3 mg/kg", "result": "2.91% and 13.69% and 5.24% and 10.98% and 4.10% and 28.35% and 5.20% and 3.75%"}, {"measurement": "Animal paw volume percent change", "setting": "Day 13, R paw, 10 mg/kg", "result": "9.25% and 5.18% and 46.33% and 5.41% (2×) and 8.05% and 5.13% and 2.39%"}, {"measurement": "Animal paw volume percent change", "setting": "Day 13, R paw, 30 mg/kg", "result": "14.98% and 5.36% and 2.30% and 2.15% and 4.62% and 1.52% and 3.04% and −0.75%"}, {"measurement": "Overall clinical score", "setting": "Day 13, 10 mg/kg", "result": "2 and 1"}, {"measurement": "Overall clinical score", "setting": "Day 13, 30 mg/kg", "result": "1 and 0 (7×)"}, {"measurement": "Animal paw volume percent change", "setting": "Day 14, L paw, 3 mg/kg", "result": "22.88% and 28.74% and 27.76% and 24.71% and 17.84% and 53.64% and 19.05% and 21.72%"}, {"measurement": "Animal paw volume percent change", "setting": "Day 14, L paw, 10 mg/kg", "result": "44.40% and 19.05% and 60.70% and 90.66% and 6.13% and 11.15% and 5.49% and 3.57%"}, {"measurement": "Animal paw volume percent change", "setting": "Day 14, L paw, 30 mg/kg", "result": "5.28% and 2.28% and −0.75% and 4.18% and 3.80% and 2.67% and 4.63% and −3.00%"}, {"measurement": "Animal paw volume percent change", "setting": "Day 14, R paw, 3 mg/kg", "result": "13.82% and 15.21% and 5.62% and 41.29% and 11.57% and 55.94% and 5.95% and 6.74%"}, {"measurement": "Animal paw volume percent change", "setting": "Day 14, R paw, 10 mg/kg", "result": "14.95% and 33.47% and 71.81% and 28.57% and 5.41% and 9.20% and 6.59% and 1.59%"}, {"measurement": "Animal paw volume percent change", "setting": "Day 14, R paw, 30 mg/kg", "result": "14.61% and 4.60% and 3.07% and 2.15% and 4.62% and 3.04% and 2.66% and −4.12%"}, {"measurement": "Overall clinical score", "setting": "Day 14, 10 mg/kg", "result": "5 and 0 (4×)"}, {"measurement": "Overall clinical score", "setting": "Day 14, 30 mg/kg", "result": "1 and 0 (7×)"}, {"measurement": "Animal paw volume percent change", "setting": "Day 15, L paw, 3 mg/kg", "result": 23.99, "unit": "%"}, {"measurement": "Animal paw volume percent change", "setting": "Day 15, L paw, 10 mg/kg", "result": "8.79% and 19.44%"}, {"measurement": "Animal paw volume percent change", "setting": "Day 15, L paw, 30 mg/kg", "result": "9.81% and 35.74% and 18.11% and 4.56% (2×) and 1.91% and 10.81% and −1.87%"}]}]}
